From patent US9149462B2, “Pyrazole compounds acting against allergic, inflammatory and immune disorders” (Glaxo Group Limited, priority 2010, dated 2015)
Some of these results come from one statement about several compounds together.

Protein sequences, listed by entry. Tags and fused reporters are not part of them.
UniProt Q96D31, whole entry: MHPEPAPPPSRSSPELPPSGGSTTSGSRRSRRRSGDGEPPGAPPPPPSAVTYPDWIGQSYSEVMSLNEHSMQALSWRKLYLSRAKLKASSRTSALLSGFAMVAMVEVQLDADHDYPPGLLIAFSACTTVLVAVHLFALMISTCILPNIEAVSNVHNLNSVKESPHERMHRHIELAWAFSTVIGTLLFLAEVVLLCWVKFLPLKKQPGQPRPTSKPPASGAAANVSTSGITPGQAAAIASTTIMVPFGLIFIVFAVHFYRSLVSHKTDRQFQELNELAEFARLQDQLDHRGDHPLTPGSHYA

Each molecule was assayed against ICRAC current (Homo sapiens, UniProt Q96D31) (assay: ICRAC assay: thapsigargin-activated calcium influx in Jurkat E6-1 cells (Fluo-4, FLIPR)). Settings: thapsigargin 5 μM, calcium add-back, Fluo-4 fluorescence on FLIPR.
Assay type: cell-based
In the case of `O=C(Nc1cnn(Cc2ccc(Cl)cc2F)c1)c1c(F)cccc1F` [Example 7], the pIC50 is reported as less than 5.0.
Molecule `COc1ccc(Cl)cc1Cn1cc(NC(=O)c2c(F)cccc2F)cn1` [Example 11, N-(1-{[5-Chloro-2-(methyloxy)phenyl]methyl}-1H-pyrazol-4-yl)-2,6-difluorobenzamide] has a pIC50 of less than 5.0.
`O=C(Nc1cnn(Cc2ccc(Cl)cc2Cl)c1)c1ccncc1F` [Example 18, N-{1-[(2,4-Dichlorophenyl)methyl]-1H-pyrazol-4-yl}-3-fluoro-4-pyridinecarboxamide] showed a pIC50 of less than 5.0.
For `Cc1cccc(Cl)c1C(=O)Nc1cnn(Cc2ccc(Cl)cc2Cl)c1` [Example 24, 2-Chloro-N-{1-[(2,4-dichlorophenyl)methyl]-1H-pyrazol-4-yl}-6-methylbenzamide], the pIC50 was less than 5.0.
